Measured values: patent US12435066B2, “Substituted tricyclic compounds” (LUPIN LIMITED, priority 2019, dated 2025)
pIC50: −log10 of the molar value. Some results were stated once for a whole list of compounds, not compound by compound. At least one compound was matched to its structure with a doubt left.

Tested on: pERK in DLD1 cells
Test: ERK phosphorylation assay after EGF stimulation
Format: cell-based
Conditions: compound 2 h, 200 ng/ml hEGF 5 minutes, alphascreen pERK, read-out: ERK phosphorylation inhibition IC50
Description: Example-128: ERK Phosphorylation Assay Protocol
Compounds were tested for their ability to inhibit pERK after EGF stimulation in DLD1 cells. Cells were seeded at 0.2 million cells per well in 96 well cell binding tissue culture plate in 100 μL complete media and were allowed to settle overnight (16 to 20 h). On the following day, cells were treated with various concentrations of test compounds for 2 h followed by stimulation with 200 ng/ml hEGF (diluted in PBS) for 5 minutes. Cells were then washed once with PBS and lysed in freshly prepared lysis buffer (provided with alphascreen surefire ERK1/2 p-T202/Y204 assay kit, cat no: TGRESB10K, Perkin Elmer). Lysis was carried out in plate shaker for 10-15 mins. Lysate was transferred to […] white opti-plate (Perkin Elmer) and alphascreen for pERK was carried out as per manufacturer's instructions. Plate was read after 2 h incubation in plate shaker at […] 300 RPM, 25-28° C.

Question: With Cc1nc(N[C@H](C)c2cc(N)cc(C(F)(F)F)c2)c2cc(O[C@H]3CCOC3)c3c(c2n1)C[C@H](C)O3 (racemic) [Compound 118b, (S/R)—N—((R)-1-(3-amino-5-(trifluoromethyl)phenyl)ethyl)-2,8-dimethyl-6-(((S)-tetrahydrofuran-3-yl)oxy)-8,9-dihydrofuro[2,3-h]quinazolin-4-amine] as the molecule, how does the pIC50 read?
Answer: The pIC50 was 6.70 to 9.00.
